Results: article PMC3570372
These are yes or no findings as the source states them, for the method shown. Some binding calls cover weakened binding; strength is not graded here.

Tests used:
[1] = target: T1, TGA5 (Arabidopsis thaliana) (UniProt Q39163); assay: two-hybrid; data not shown; yeast two-hybrid with NPR1 or npr1 alleles in a third plasmid
T1 sequence: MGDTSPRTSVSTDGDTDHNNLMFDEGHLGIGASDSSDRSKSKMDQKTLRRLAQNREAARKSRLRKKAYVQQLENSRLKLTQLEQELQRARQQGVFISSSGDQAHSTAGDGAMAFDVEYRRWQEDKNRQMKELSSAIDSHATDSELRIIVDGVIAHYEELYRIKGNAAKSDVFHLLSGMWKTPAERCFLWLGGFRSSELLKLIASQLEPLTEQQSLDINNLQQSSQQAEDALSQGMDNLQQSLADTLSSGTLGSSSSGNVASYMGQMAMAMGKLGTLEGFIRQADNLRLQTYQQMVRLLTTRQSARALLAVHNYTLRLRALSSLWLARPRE

[2] = target: T2, TGA2 (Arabidopsis thaliana) (UniProt P43273); assay: two-hybrid; yeast two-hybrid (n-hybrid) with pDEST22 and pDEST32 fusions, NPR1 or npr1 alleles in a third plasmid (pARC352); interaction quantified in Miller Units
T2 sequence: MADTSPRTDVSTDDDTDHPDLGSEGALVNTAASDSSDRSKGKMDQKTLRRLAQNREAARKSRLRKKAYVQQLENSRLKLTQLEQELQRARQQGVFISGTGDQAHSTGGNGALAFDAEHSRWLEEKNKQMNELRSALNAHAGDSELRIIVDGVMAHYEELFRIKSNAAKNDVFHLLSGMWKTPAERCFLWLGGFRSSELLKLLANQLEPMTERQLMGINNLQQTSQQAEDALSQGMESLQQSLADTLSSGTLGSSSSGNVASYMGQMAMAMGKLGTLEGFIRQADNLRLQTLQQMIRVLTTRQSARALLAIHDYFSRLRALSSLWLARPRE

[3] = target: T3, TGA6 (Arabidopsis thaliana) (UniProt Q39140); assay: as above
T3 sequence: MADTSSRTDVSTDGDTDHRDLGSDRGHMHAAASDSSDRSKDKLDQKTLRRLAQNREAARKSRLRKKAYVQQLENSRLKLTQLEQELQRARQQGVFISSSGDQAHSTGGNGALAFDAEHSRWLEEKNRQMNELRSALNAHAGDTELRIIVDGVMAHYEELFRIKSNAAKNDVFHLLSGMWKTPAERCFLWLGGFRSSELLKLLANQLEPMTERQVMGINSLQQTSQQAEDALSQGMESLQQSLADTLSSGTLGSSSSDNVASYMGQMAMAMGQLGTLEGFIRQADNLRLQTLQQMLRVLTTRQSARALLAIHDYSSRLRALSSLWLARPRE

[4] = target: T4, BLADE-ON-PETIOLE2 (BOP2) (Arabidopsis thaliana) (UniProt Q9ZVC2); assay: as above
T4 sequence: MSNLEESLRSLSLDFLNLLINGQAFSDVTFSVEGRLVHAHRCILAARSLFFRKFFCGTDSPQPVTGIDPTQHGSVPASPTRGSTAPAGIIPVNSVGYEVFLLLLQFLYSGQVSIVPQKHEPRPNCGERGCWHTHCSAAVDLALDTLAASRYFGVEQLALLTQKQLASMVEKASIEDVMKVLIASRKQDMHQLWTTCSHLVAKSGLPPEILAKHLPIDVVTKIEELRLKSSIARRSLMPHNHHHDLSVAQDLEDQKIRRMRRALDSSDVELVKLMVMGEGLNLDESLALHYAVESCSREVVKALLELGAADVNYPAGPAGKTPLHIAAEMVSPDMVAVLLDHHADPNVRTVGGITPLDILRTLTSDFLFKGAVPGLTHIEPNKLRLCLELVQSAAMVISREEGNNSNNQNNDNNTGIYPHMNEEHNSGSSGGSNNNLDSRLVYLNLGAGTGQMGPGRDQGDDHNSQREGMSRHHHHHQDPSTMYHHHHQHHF

[5] = target: T2, TGA2 (Arabidopsis thaliana); assay: two-hybrid; data not shown; yeast two-hybrid with NPR1 or npr1 alleles in a third plasmid
[6] = target: T3, TGA6 (Arabidopsis thaliana); assay: as above

Measured: binding

B1: BLADE-ON-PETIOLE1 (BOP1) (protein, UniProt Q9M1I7 1-467)
chain: MSNTFEESLKSMSLDYLNLLINGQAFSDVTFSVEGRLVHAHRCILAARSLFFRKFFCESDPSQPGAEPANQTGSGARAAAVGGVIPVNSVGYEVFLLLLQFLYSGQVSIVPHKHEPRSNCGDRGCWHTHCTAAVDLSLDILAAARYFGVEQLALLTQKHLTSMVEKASIEDVMKVLIASRKQDMHQLWTTCSYLIAKSGLPQEILAKHLPIELVAKIEELRLKSSMPLRSLMPHHHDLTSTLDLEDQKIRRMRRALDSSDVELVKLMVMGEGLNLDESLALIYAVENCSREVVKALLELGAADVNYPAGPTGKTALHIAAEMVSPDMVAVLLDHHADPNVQTVDGITPLDILRTLTSDFLFKGAIPGLTHIEPNKLRLCLELVQSAALVISREEGNNNSNDNNTMIYPRMKDEHTSGSSLDSRLVYLNLGATNRDIGDDNSNQREGMNLHHHHHDPSTMYHHHHHHF
binds: [1] | [2] | [3] | [4]

B2: BLADE-ON-PETIOLE2 (BOP2) (protein, UniProt Q9ZVC2 1-491)
chain: T4 sequence
binds: [5] | [1] | [6]
